# In the supplement of paper PMC8728848:
# This is one part of the list.
# What was measured:
# Test in all cases: glycan array binding signal (z-score within array); higher = stronger binding
# Conditions in all cases: glycan notation: IUPAC condensed, linker removed
# [1] = target: Fuc(a1-2)Gal(b1-4)GlcNAc(b1-3)Gal(b1-4)GlcNAc(b1-3)Gal(b1-4)GlcNAc
# Outline: (§1)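 Glycan array data came from 3228 arrays in the Consortium for Functional Glycomics database, and only arrays with an available protein sequence were kept. Glycan names were put into IUPAC-condensed notation, and columns mapping to the same glycan were averaged. The binding signal is a within-array Z-score, averaged across arrays of one protein sequence run at different concentrations or buffers and across linkers. A negative Z-score can be read as non-binding.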
# [2] = target: Fuc(a1-2)Gal(b1-4)GlcNAc(b1-3)GalNAc
# Outline: as §1
# [3] = target: Fuc(a1-2)Gal(b1-4)GlcNAc(b1-3)[Fuc(a1-2)Gal(b1-4)GlcNAc(b1-6)]GalNAc
# Outline: as §1
# [4] = target: Fuc(a1-2)Gal(b1-4)GlcNAc(b1-3)[Fuc(a1-3)[Gal(b1-4)]GlcNAc(b1-6)]Gal(b1-4)Glc
# Outline: as §1
# [5] = target: Fuc(a1-2)Gal(b1-4)GlcNAc(b1-6)GalNAc
# Outline: as §1
# [6] = target: Fuc(a1-2)Gal(b1-4)GlcNAc6S
# Outline: as §1
# [7] = target: Fuc(a1-2)Gal(b1-4)[Fuc(a1-3)]GlcNAc
# Outline: as §1
# [8] = target: Fuc(a1-2)Gal(b1-4)[Fuc(a1-3)]GlcNAc(b1-2)Man(a1-3)[Fuc(a1-2)Gal(b1-4)[Fuc(a1-3)]GlcNAc(b1-2)Man(a1-6)]Man(b1-4)GlcNAc(b1-4)[Fuc(a1-6)]GlcNAc
# Outline: as §1
# [9] = target: Fuc(a1-2)Gal(b1-4)[Fuc(a1-3)]GlcNAc(b1-2)[Fuc(a1-2)Gal(b1-4)[Fuc(a1-3)]GlcNAc(b1-4)]Man(a1-3)[Fuc(a1-2)Gal(b1-4)[Fuc(a1-3)]GlcNAc(b1-2)Man(a1-6)]Man(b1-4)GlcNAc(b1-4)GlcNAc
# Outline: as §1
# [10] = target: Fuc(a1-2)Gal(b1-4)[Fuc(a1-3)]GlcNAc(b1-3)Gal(b1-4)[Fuc(a1-3)]GlcNAc
# Outline: as §1
# [11] = target: Fuc(a1-2)Gal(b1-4)[Fuc(a1-3)]GlcNAc(b1-3)Gal(b1-4)[Fuc(a1-3)]GlcNAc(b1-3)Gal(b1-4)[Fuc(a1-3)]GlcNAc
# Outline: as §1
# [12] = target: Fuc(a1-2)Gal(b1-4)[Fuc(a1-3)]GlcNAc(b1-3)GalNAc
# Outline: as §1
# [13] = target: Fuc(a1-2)Gal(b1-4)[Fuc(a1-3)]GlcNAc(b1-3)[Neu5Ac(a2-6)Gal(b1-4)GlcNAc(b1-6)]Gal(b1-4)Glc
# Outline: as §1
# [14] = target: Fuc(a1-2)Gal3S(b1-4)GlcNAc
# Outline: as §1
# [15] = target: Fuc(a1-2)Gal6S(b1-3)GlcNAc
# Outline: as §1
# [16] = target: Fuc(a1-2)Gal6S(b1-3)GlcNAc6S
# Outline: as §1
# [17] = target: Fuc(a1-2)Gal6S(b1-4)Glc
# Outline: as §1
# [18] = target: Fuc(a1-2)Gal6S(b1-4)Glc6S
# Outline: as §1
# [19] = target: Fuc(a1-2)[Gal(a1-3)]Gal
# Outline: as §1
# [20] = target: Fuc(a1-2)[Gal(a1-3)]Gal(b1-3)GalNAc
# Outline: as §1
# [21] = target: Fuc(a1-2)[Gal(a1-3)]Gal(b1-3)GalNAc(b1-3)Gal(a1-4)Gal(b1-4)Glc
# Outline: as §1
# [22] = target: Fuc(a1-2)[Gal(a1-3)]Gal(b1-3)GlcNAc
# Outline: as §1
# [23] = target: Fuc(a1-2)[Gal(a1-3)]Gal(b1-3)GlcNAc(b1-2)Man(a1-3)[Fuc(a1-2)[Gal(a1-3)]Gal(b1-3)GlcNAc(b1-2)Man(a1-6)]Man(b1-4)GlcNAc(b1-4)GlcNAc
# Outline: as §1
# [24] = target: Fuc(a1-2)[Gal(a1-3)]Gal(b1-3)GlcNAc(b1-2)Man(a1-3)[Fuc(a1-2)[Gal(a1-3)]Gal(b1-3)GlcNAc(b1-2)Man(a1-6)]Man(b1-4)GlcNAc(b1-4)[Fuc(a1-6)]GlcNAc
# Outline: as §1
# [25] = target: Fuc(a1-2)[Gal(a1-3)]Gal(b1-3)GlcNAc(b1-3)GalNAc
# Outline: as §1
# [26] = target: Fuc(a1-2)[Gal(a1-3)]Gal(b1-3)GlcNAc(b1-6)GalNAc
# Outline: as §1
# [27] = target: Fuc(a1-2)[Gal(a1-3)]Gal(b1-4)Glc
# Outline: as §1
# [28] = target: Fuc(a1-2)[Gal(a1-3)]Gal(b1-4)GlcNAc
# Outline: as §1
# [29] = target: Fuc(a1-2)[Gal(a1-3)]Gal(b1-4)GlcNAc(b1-2)Man
# Outline: as §1
# [30] = target: Fuc(a1-2)[Gal(a1-3)]Gal(b1-4)GlcNAc(b1-2)Man(a1-3)[Fuc(a1-2)[Gal(a1-3)]Gal(b1-4)GlcNAc(b1-2)Man(a1-6)]Man(b1-4)GlcNAc(b1-4)GlcNAc
# Outline: as §1
binder,measurement,setting,value
GS7807I-bvu-563-22-563 (Bacteroides vulgatus) (protein) IFSSCTDDFEKLNTSNIQVDPADLPFAAQCTEPMTYCYPPQQNMFQFWTNLTIDLYGGYFMTPNGNFTNGDMGENRGHSGGMYENYYLHIFNNTRRIIAQCDASGERGLSGVMRIVQAYGTLMTTDAYGPIPYSSILSGENEVYFEFDSQKDLYKAMLEDLSTAITDISAMGADEIAKLKSFDCWCNGDKDLWVKIANTMKLRMALRLSKRETEAGNAGMNLKAIATEAAQNTLATVNKDILIDKSLENEMWLMFNWGDCGFNANLVTIMSGTKDPRQPLYMTLNTGDIKNEAGTTTVAANSQYLGIRFASGLPAKPNSWGNFSGWIQGNNGSSYSMPLPIMKAAEAYFLLAEAKLRWDIGSESVKNLYENGIRVSMTNELAYRGAYAGIKEYPEGAVDAYINGTSTQIDYTDPIKAELSTPAVNKLSVKWDESASNEEKLERIITQKWLALFPLSTEGWAEQRRTGYPRFFPAFVNESNGAVNTEEGVRRVIYSSQAYDANAKGVEGGIKLLDEENSSKFGISGDKGGTHLWWDNADKGNF,glycan array binding signal (z-score),[1],-0.467
same,glycan array binding signal (z-score),[2],2.15
same,glycan array binding signal (z-score),[3],-0.146
same,glycan array binding signal (z-score),[4],-0.07
same,glycan array binding signal (z-score),[5],0.799
same,glycan array binding signal (z-score),[6],0.744
same,glycan array binding signal (z-score),[7],-1.33
same,glycan array binding signal (z-score),[8],-0.119
same,glycan array binding signal (z-score),[9],-0.709
same,glycan array binding signal (z-score),[10],-0.323
same,glycan array binding signal (z-score),[11],0.752
same,glycan array binding signal (z-score),[12],0.105
same,glycan array binding signal (z-score),[13],-0.243
same,glycan array binding signal (z-score),[14],-1.92
same,glycan array binding signal (z-score),[15],1.12
same,glycan array binding signal (z-score),[16],0.67
same,glycan array binding signal (z-score),[17],0.511
same,glycan array binding signal (z-score),[18],0.827
same,glycan array binding signal (z-score),[19],-0.24
same,glycan array binding signal (z-score),[20],-0.741
same,glycan array binding signal (z-score),[21],0.129
same,glycan array binding signal (z-score),[22],-0.036
same,glycan array binding signal (z-score),[23],0.67
same,glycan array binding signal (z-score),[24],-0.026
same,glycan array binding signal (z-score),[25],-0.924
same,glycan array binding signal (z-score),[26],0.231
same,glycan array binding signal (z-score),[27],0.324
same,glycan array binding signal (z-score),[28],0.026
same,glycan array binding signal (z-score),[29],0.101
same,glycan array binding signal (z-score),[30],1.45

# Two records picked at random from those above, as already listed:
binder,measurement,setting,value
GS7807I-bvu-563-22-563 (Bacteroides vulgatus) (protein) IFSSCTDDFEKLNTSNIQVDPADLPFAAQCTEPMTYCYPPQQNMFQFWTNLTIDLYGGYFMTPNGNFTNGDMGENRGHSGGMYENYYLHIFNNTRRIIAQCDASGERGLSGVMRIVQAYGTLMTTDAYGPIPYSSILSGENEVYFEFDSQKDLYKAMLEDLSTAITDISAMGADEIAKLKSFDCWCNGDKDLWVKIANTMKLRMALRLSKRETEAGNAGMNLKAIATEAAQNTLATVNKDILIDKSLENEMWLMFNWGDCGFNANLVTIMSGTKDPRQPLYMTLNTGDIKNEAGTTTVAANSQYLGIRFASGLPAKPNSWGNFSGWIQGNNGSSYSMPLPIMKAAEAYFLLAEAKLRWDIGSESVKNLYENGIRVSMTNELAYRGAYAGIKEYPEGAVDAYINGTSTQIDYTDPIKAELSTPAVNKLSVKWDESASNEEKLERIITQKWLALFPLSTEGWAEQRRTGYPRFFPAFVNESNGAVNTEEGVRRVIYSSQAYDANAKGVEGGIKLLDEENSSKFGISGDKGGTHLWWDNADKGNF,glycan array binding signal (z-score),[24],-0.026
same,glycan array binding signal (z-score),[10],-0.323
